# Library screen at single concentrations

Protein sequences, listed by entry. Tags and fused reporters are not part of them. Residues count along the entry.
UniProt P9WPC5, whole entry: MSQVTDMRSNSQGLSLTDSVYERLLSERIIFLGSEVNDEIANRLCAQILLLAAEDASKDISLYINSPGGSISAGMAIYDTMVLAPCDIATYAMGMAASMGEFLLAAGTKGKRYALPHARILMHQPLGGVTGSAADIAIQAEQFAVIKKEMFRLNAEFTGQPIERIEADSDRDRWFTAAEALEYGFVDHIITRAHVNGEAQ
UniProt P9WPC3, whole entry partner: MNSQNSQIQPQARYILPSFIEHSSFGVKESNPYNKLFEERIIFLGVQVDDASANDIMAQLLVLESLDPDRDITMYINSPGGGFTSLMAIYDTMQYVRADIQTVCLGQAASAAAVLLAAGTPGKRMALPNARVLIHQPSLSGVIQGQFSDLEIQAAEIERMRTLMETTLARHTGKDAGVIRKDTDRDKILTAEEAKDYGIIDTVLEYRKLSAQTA
UniProt P9WNZ1, whole entry: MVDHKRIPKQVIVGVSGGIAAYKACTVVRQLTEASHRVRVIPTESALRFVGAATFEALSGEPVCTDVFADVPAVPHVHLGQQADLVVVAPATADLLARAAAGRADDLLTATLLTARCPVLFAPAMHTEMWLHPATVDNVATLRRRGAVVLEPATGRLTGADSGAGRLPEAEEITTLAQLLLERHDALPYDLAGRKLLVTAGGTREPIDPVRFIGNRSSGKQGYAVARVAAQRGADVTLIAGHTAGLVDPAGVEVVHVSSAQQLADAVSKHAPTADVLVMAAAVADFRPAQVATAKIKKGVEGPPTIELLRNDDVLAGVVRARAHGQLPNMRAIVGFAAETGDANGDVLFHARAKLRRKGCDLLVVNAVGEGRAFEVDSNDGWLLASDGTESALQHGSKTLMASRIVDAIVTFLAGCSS
UniProt Q8IDJ8, 1-583: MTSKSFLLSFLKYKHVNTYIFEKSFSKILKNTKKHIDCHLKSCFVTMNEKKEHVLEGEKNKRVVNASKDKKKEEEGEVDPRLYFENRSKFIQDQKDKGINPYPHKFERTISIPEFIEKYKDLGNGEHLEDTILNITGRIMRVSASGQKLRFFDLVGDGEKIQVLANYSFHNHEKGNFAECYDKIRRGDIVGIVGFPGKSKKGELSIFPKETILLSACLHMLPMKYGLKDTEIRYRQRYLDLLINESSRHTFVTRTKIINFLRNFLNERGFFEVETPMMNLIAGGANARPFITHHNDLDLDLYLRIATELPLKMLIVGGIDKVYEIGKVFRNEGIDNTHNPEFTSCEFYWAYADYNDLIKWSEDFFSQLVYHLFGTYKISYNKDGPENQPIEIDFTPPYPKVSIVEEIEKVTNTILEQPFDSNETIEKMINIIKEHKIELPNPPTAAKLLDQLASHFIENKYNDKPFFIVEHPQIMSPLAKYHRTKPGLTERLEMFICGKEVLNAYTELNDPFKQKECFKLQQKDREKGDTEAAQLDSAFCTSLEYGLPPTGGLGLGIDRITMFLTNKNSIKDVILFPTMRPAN

ClpP1P2: 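ClpP1P2, Mycobacterium tuberculosis (UniProt P9WPC5 and UniProt P9WPC3). Protease assay of ClpP1P2, read by the AMC dye that it sets free. Concentration: 50 µM. Direction is inferred from only a few compounds that gave an IC50; most scored high, so higher reads as stronger inhibition. Most other retested compounds had strongly negative values. Of about 69,000 compounds tested this way, about 10 (0.015%) reached 50% or more in at least one test.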
CoaBC: 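Enzyme assay of CoaBC with a phosphate dye (Biomol Green) read at 650 nm. Target: Coenzyme A biosynthesis protein CoaBC, Mycobacterium tuberculosis (UniProt P9WNZ1). Concentration: 30 µM. Direction is inferred from only a few compounds that gave an IC50; most scored high, so higher reads as stronger inhibition. Most strong results did not repeat in a second test. Size under these conditions: about 67,000 compounds, about 40 of them at 50% or above in at least one test.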
PfKRS1: 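Enzyme assay of the cytosolic lysyl-tRNA synthetase in 384-well plates, read by luminescence. Target: Lysine-tRNA ligase, Plasmodium falciparum 3D7 (UniProt Q8IDJ8). Concentration: 30 µM. Higher reads as stronger inhibition, judged from the few compounds that gave an IC50. Size under these conditions: about 69,000 compounds, about 49 of them at 50% or above in at least one test.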

The filed quantity is “Percent Effect” (%). The record does not define 0% and 100%; most values in the screen are far below 50% and negative numbers occur (in some assays of this library far below -100). The compounds are a random part of those screened. A dash means the value is not listed here; it may have been measured.

structure,ClpP1P2,CoaBC,PfKRS1
Cc1cccc(C)c1NC(=O)c1n[nH]c(-n2cnnc2)n1,-11.35,6.072,1.757
CO[C@H]1CN(C(=O)OC(C)(C)C)CC1NCc1ccco1 (stereo partly drawn),-4.657,5.556,2.085
CC(C1CCN(Cc2cnn(C)c2C2CC2)CC1)N1CCCC1 (stereo not drawn),14.13,-,1.675
CCc1ncc(CNCc2cccnc2N(C)C)cn1,-6.21,1.337,5.298
CC(O)CN1CCN(C(=O)c2cccc3[nH]ncc23)CC1 (stereo not drawn),-19.93,9.895,2.212
CCn1nc(C)c2ccn(CC(=O)NCCCOC)c(=O)c21,-4.97,3.269,7.101
O=C(c1cnccn1)N1CCCC(Cn2cc(C3CCCC3)nn2)C1 (stereo not drawn),11.18,0.4878,3.778
CCCn1c(N2CCCC(C)C2)nc2c(C)nn(C)c2c1=O (stereo not drawn),-17.98,4.157,7.021
Cc1cc(Br)ccc1C(=O)NCCN1CCCCCC1,7.442,19.01,0.08223
CCc1cnc(N2C[C@@H]3[C@@H](C(=O)N(C)C)CCS(=O)(=O)[C@@H]3C2)nc1,14.37,4.827,3.653
CCCc1n[nH]cc1C(=O)N1CCC(c2nccn2CCOC)CC1,-14.15,14.91,4.051
CCOC(=O)[C@H]1CNC[C@H]1C(=O)OCC,-6.655,5.984,2.345
CCOc1ccc(Cl)c(C(=O)NCCC(=O)Nc2ccccn2)n1,-9.153,5.789,0.1272
CCOCCOC(C)C(=O)Nc1ccnn1-c1ccccc1C (stereo not drawn),1.116,-13.28,-1.562
O=C(CCc1ccc(Cl)s1)N1CCC(N2CCNC2=O)CC1,-28.36,1.828,-0.149
COc1ccc(Cl)cc1NC(=O)CNc1ccn(CC(N)=O)n1,8.313,6.876,6.291
Cc1nc2ccccc2nc1CN1CCCC1Cn1cncn1 (stereo not drawn),19.2,-4.359,0.3073
Cc1cnn(C2CN(Cc3nnc(-c4ccccc4Cl)o3)C2)c1,-2.968,-11.67,-4.705
Cc1noc(CCNC(=O)NCc2ccc(OC3CCCC3)cc2)n1,6.274,-5.943,2.176
Cc1cnn(CCNCC(O)c2ccc(F)c(F)c2)c1 (stereo not drawn),8.063,-9.821,1.361
O=C1COc2c(cccc2C(=O)N2CCCC2Cn2cccn2)N1 (stereo not drawn),-6.931,10.15,4.735
Cc1ccc(-c2nnc(CCC(=O)N3CCCC3c3ccc[nH]3)o2)cc1 (stereo not drawn),-6.24,-3.883,4.578
CC(C)c1nnc(NC(=O)NC2CCOc3ccccc32)s1 (stereo not drawn),-9.319,1.333,0.6825
O=C(C1CC1)N1CCC2(COCc3cnc(NCc4ccco4)nc32)C1 (stereo not drawn),-15.85,-2.716,-0.0463
CN(C)c1ccc(CC2CCN(c3cnccn3)C2)nn1 (stereo not drawn),-16.92,4.513,1.802
Cn1cc(-c2nc(CN3CCN(CCO)CC3)cs2)cn1,21.13,-4.787,-1.395
CCN(CC)C(=O)CN1CCC(c2nc(C)c3c(n2)N(C)CCC3)CC1,11.01,3.563,0.5085
COc1ccc(C[C@H]2CNCC[C@H]2OC)cc1,-3.483,2.445,1.862
CCc1ncncc1C(=O)N1CCCC(n2nc(C)nc2C)C1 (stereo not drawn),-1.372,-8.951,0.6271
Cc1cc(CN(CC(N)=O)CC(C)C)no1,-0.01914,0.3681,2.102
O=C(O)c1ccc(CC2CCN(Cc3ccc(-c4cc[nH]n4)o3)C2)cc1 (stereo not drawn),-13.29,4.793,-2.939
c1ccc(CN2CCCn3nnc(COc4ccccn4)c3C2)nc1,-2.442,3.333,5.078
CCc1ccc(C(=O)N2CCCn3nnc(Cn4cccn4)c3C2)cc1,10.25,13.65,-0.7757
O=C(NCc1ccccn1)NCc1ccc(Cl)s1,-10.58,-6.434,0.3484
NS(=O)(=O)CC1CCN(c2ncccc2C(F)(F)F)CC1,-8.411,-10.02,-0.794
COc1cccc(CNCCNS(=O)(=O)Cc2ccccc2)c1,-2.188,0.7075,0.3143
COc1ccccc1N1CCN(C(=O)c2ccnc(N(C)C)c2)CC1,-6.992,6.316,-0.2878
CN1CC(=O)N(c2cccnc2)CC12CCN(C(=O)c1cccn1C)C2 (stereo not drawn),-10.31,1.11,-2.571
CCNc1cc2c(nn1)CCN(C(=O)c1ccc(CNC(C)=O)o1)C2,-3.044,3.52,11.4
COc1ccc(-n2ccc(C(=O)NCCN3CCCCC3C)n2)cc1 (stereo not drawn),3.256,3.915,-0.4335
Cc1cc(C2CCCN2CC(=O)N(CCC#N)c2ccccc2F)on1 (stereo not drawn),8.439,5.059,6.876
COc1cc(CC(O)CC#N)c(OC)c2c1OCO2 (stereo not drawn),1.141,2.784,3.441
CN1CC2(COCCN(c3ncccn3)C2)OCC1=O (stereo not drawn),-2.23,0.8653,3.126
CN(C)c1cc(C(=O)Nc2cccnc2N2CCSCC2)ccn1,-4.28,4.854,2.278
OCc1ccc(CN(CCCn2ccnc2)Cc2ccncc2)o1,-9.226,-1.816,4.895
O=C(NC1CCN(Cn2nc(-c3ccccc3)oc2=O)CC1)C1CC1,10.97,5.725,3.741
Cc1ccc([C@@H]2CN(C(=O)CCc3ccco3)C[C@H]2N(C)C)cc1,-15.01,1.683,0.4751
O=C(c1ccsc1)N1CCO[C@@H]2CN(Cc3cccs3)C[C@@H]2C1,-5.549,-4.575,3.141
Cc1ccc(Sc2ccc(CN3CCC4(CCCNC4=O)C3)o2)cc1 (stereo not drawn),-19.55,7.933,-2.304
COCCOc1ncccc1C(=O)N1CCCn2ncnc21,-1.027,-1.297,1.618
Cc1noc([C@@]23CCO[C@@H]2CCN(C(=O)c2sccc2C)C3)n1,-7.535,2.919,2.515
O=C(NCc1ccco1)[C@H]1CC[C@@H]2[C@@H](CCN2c2ncc(F)cn2)O1,-8.511,-2.941,0.9913
Cc1nn(C)c2ncc(CN3CCCCCC3)cc12,4.807,10.05,-0.7733
Cc1cnc(C(=O)NCc2ccc3c(c2)CCCN3C)cn1,-3.006,3.851,1.653
Cc1cccc(C(C)(C)CNC(=O)CCSc2nnnn2C)c1,8.184,0.4878,5.157
Cc1nc(C)c(C(=O)N(C)Cc2cnn(C)c2)s1,1.009,7.269,3.356
CCCN1CCCn2nc(CNS(=O)(=O)c3ccc(C)cc3)cc2C1,-6.974,-4.825,-1.321
O=C(NCCc1nccs1)[C@H](c1ccccc1)n1cnnn1,-14.86,6.132,-0.7736
COCCn1c2c(ccc1=O)CC(NS(C)(=O)=O)CC2 (stereo not drawn),11.14,12.69,-1.132
CN(Cc1cccc(Cl)c1)S(=O)(=O)N1CCOCC1,-2.972,7.692,1.01
Cc1ccsc1C(=O)N1CCn2cnc(COCC3CC3)c2C1,2.058,6.947,1.75
Cc1cc2n(n1)CC(CNC1CCN(C3CC3)CC1)CN2 (stereo not drawn),12.86,-43.35,3.348
CCc1noc(CN2CCN(C(=O)N(CC)CC)CC2)n1,-21.1,-0.2625,1.223
CNc1snc(C)c1C(=O)N1CCCC(n2nc(C)cc2C)C1 (stereo not drawn),-0.4098,7.692,-1.543
CCN(C(=O)CN1CCC(c2n[nH]c(C3CC3)n2)CC1)C1CC1,-9.963,4.797,2.817

Repeated from the top, 4 entries:

structure,ClpP1P2,CoaBC,PfKRS1
Cc1cccc(C)c1NC(=O)c1n[nH]c(-n2cnnc2)n1,-11.35,6.072,1.757
CO[C@H]1CN(C(=O)OC(C)(C)C)CC1NCc1ccco1 (stereo partly drawn),-4.657,5.556,2.085
CC(C1CCN(Cc2cnn(C)c2C2CC2)CC1)N1CCCC1 (stereo not drawn),14.13,-,1.675
CCc1ncc(CNCc2cccnc2N(C)C)cn1,-6.21,1.337,5.298

From ChEMBL document CHEMBL3988442, “University of Dundee, Small-Polar-MMV Screening Library” (2021).